Laboratory results reported in article PMC6004002.
Results are given in words; binding and its absence hold for the method and conditions named. In cells and extracts the contact can be indirect. A yes stands for co-enrichment or nearness to the bait. Other partners may have been found.

By UniProt entry, the sequences of proteins in these tests, tags left out.
UniProt Q88A90: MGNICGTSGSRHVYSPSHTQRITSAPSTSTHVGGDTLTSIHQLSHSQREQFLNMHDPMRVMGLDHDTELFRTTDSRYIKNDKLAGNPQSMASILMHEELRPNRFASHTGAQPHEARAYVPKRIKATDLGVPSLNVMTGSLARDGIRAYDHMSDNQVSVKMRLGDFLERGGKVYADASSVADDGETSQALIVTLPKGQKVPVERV

B1: STP1 (protein, UniProt P23586 1-522)
chain: MPAGGFVVGDGQKAYPGKLTPFVLFTCVVAAMGGLIFGYDIGISGGVTSMPSFLKRFFPSVYRKQQEDASTNQYCQYDSPTLTMFTSSLYLAALISSLVASTVTRKFGRRLSMLFGGILFCAGALINGFAKHVWMLIVGRILLGFGIGFANQAVPLYLSEMAPYKYRGALNIGFQLSITIGILVAEVLNYFFAKIKGGWGWRLSLGGAVVPALIITIGSLVLPDTPNSMIERGQHEEAKTKLRRIRGVDDVSQEFDDLVAASKESQSIEHPWRNLLRRKYRPHLTMAVMIPFFQQLTGINVIMFYAPVLFNTIGFTTDASLMSAVVTGSVNVAATLVSIYGVDRWGRRFLFLEGGTQMLICQAVVAACIGAKFGVDGTPGELPKWYAIVVVTFICIYVAGFAWSWGPLGWLVPSEIFPLEIRSAAQSITVSVNMIFTFIIAQIFLTMLCHLKFGLFLVFAFFVVVMSIFVYIFLPETKGIPIEEMGQVWRSHWYWSRFVEDGEYGNALEMGKNSNQAGTKHV
B2: RIN4 (protein, UniProt Q8GYN5 1-211)
chain: MARSNVPKFGNWEAEENVPYTAYFDKARKTRAPGSKIMNPNDPEYNSDSQSQAPPHPPSSRTKPEQVDTVRRSREHMRSREESELKQFGDAGGSSNEAANKRQGRASQNNSYDNKSPLHKNSYDGTGKSRPKPTNLRADESPEKVTVVPKFGDWDENNPSSADGYTHIFNKVREERSSGANVSGSSRTPTHQSSRNPNNTSSCCCFGFGGK

Biological target: HopF2-BirA*-FLAG-HA (Pseudomonas syringae) (UniProt Q88A90)
Assay: proximity labelling; BioID in leaves of transgenic Arabidopsis expressing HopF2-BirA*-FLAG-HA; 2 mM biotin infiltrated, 30 uM dexamethasone 24 h at 25 °C; streptavidin sepharose purification of combined soluble and insoluble fractions, on-bead digestion, LC-MS/MS; SAINT against Col-0, BFDR ≤ 0.01; preys significant with HopF2-BirA* but not with BirA* alone

Row | Binder | binding
1 | B1 | binds
2 | B2 | binds
